# Measurements as given in PubChem BioAssay AID1259354 (Paczesny and Yang Labs, IUPUI and University of Michigan, 2018).
# Chains of the proteins cited; added tags and fusions are not shown. Lines headed by an entry give the natural chain unless they say otherwise; changes in a name come on top.
# UniProt Q01638: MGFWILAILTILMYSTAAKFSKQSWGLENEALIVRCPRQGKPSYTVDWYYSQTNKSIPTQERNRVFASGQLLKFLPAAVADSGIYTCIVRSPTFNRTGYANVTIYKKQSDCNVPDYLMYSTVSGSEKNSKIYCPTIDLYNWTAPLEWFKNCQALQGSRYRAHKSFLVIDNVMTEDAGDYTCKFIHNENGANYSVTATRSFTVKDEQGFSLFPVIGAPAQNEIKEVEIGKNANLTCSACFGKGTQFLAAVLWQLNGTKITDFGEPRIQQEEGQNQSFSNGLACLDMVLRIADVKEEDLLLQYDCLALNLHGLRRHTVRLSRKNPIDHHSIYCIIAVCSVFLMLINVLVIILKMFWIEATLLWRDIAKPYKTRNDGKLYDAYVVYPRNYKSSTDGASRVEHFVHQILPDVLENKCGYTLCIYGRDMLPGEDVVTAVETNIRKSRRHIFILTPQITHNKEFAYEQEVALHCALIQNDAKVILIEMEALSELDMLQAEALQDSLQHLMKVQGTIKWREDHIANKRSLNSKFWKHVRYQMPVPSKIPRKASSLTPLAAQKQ
# Among all 78,000 compounds or so, about 1,800 (2.3%) were called active. Inconclusive means that the source gave no clear call. Such entries were picked first, then a sample of the others. Cut-off read from the data, not from the text of the source: active = inhibition above about 30%; inconclusive = mostly about 10% to 28%; inactive = weaker than that.
# Molecular target: Interleukin-1 receptor-like 1 (Homo sapiens) (UniProt Q01638)
# Assay: blocks human ST2 binding to IL-33, primary screen, biochemical, AlphaLISA (AID 1259354)
# Settings: AlphaLISA ST2-Fc/biotin-IL-33 interaction, 1 h; at 17 µM, hits give high values
row,Compound,inhibition
1,Cc1ccc(-c2[nH]ncc2CNC2CCN(c3ccccc3)CC2)cc1C,inconclusive: 10%
2,CC(CCNc1nc(-c2ccncc2)nc2c1CCNCC2)n1ccnc1 (configuration not stated),inconclusive: 13%
3,CC(C)Oc1ccccc1/C=C/c1nc(O)c([N+](=O)[O-])c(=O)[nH]1,inconclusive: 12%
4,Cc1[nH]c2ccccc2c1CC(=O)N1Cc2cnc(CC(C)C)nc2C1,inactive
5,CCCc1nc(C(=O)NCc2nnc(-c3ccccc3)o2)cs1,inconclusive: 10%
6,Cc1[nH]nc(-c2ccc(S(=O)(=O)Nc3ccc(S(N)(=O)=O)cc3)s2)c1C,inactive
7,O=C(CN1C(=O)/C(=C\c2cccc(Cl)c2)Sc2ccccc21)NC1CCCCC1,inconclusive: 14%
8,COc1ccc(O)c(C2=Nc3ccccc3N=C(c3ccccc3)C2)c1,inconclusive: 23%
9,COCCNC(=O)c1cccc(OC2CCN(Cc3cn(C)c4ccccc34)CC2)c1,inconclusive: 14%
10,O=C(Nc1ccc(Cl)cc1)N[C@H]1CO[C@H]2[C@@H]1OC[C@H]2OC(=O)Nc1ccccc1,inconclusive: 11%
11,O=C(Nc1ccccc1C(=O)O)c1ccc(C2SCC(=O)N2Cc2ccccc2)cc1 (configuration not stated),inconclusive: 20%
12,CN(Cc1cccs1)C(=O)C1(c2ccccc2F)CC1,inconclusive: 12%
13,Cc1cc2c(c(=O)[nH]1)C(=O)O/C2=C/c1ccc(F)cc1,inconclusive: 19%
14,O=C1CCCCN1CCCC(=O)N1CCOC(Cc2ccccc2)C1 (configuration not stated),inconclusive: 21%
15,CC(C)c1noc(C2CCN(C(=O)CCc3c[nH]c4ccccc34)CC2)n1,inconclusive: 20%
16,CC(C)Cn1nc(C(=O)NC2CCCC2)c2c1CCN(C(=O)c1cccc(N3CCCC3=O)c1)C2,inactive
17,CCCCNC(=O)Cc1c(C(=O)O)[nH]c2ccccc12,inactive
18,O=C1/C(=C/c2cccc(O)c2)Sc2ccccc21,inconclusive: 22%
19,COc1ccc2cc3cc(C(=O)NCC4CCCO4)oc3nc2c1 (configuration not stated),inactive
20,COc1cccc(CN2CCCC3(CCN(Cc4cccn4-c4ccccn4)C3)C2)c1OC (configuration not stated),inactive
21,COc1ccc(CN2C(=S)N(c3ccc(OC)cc3)[C@H]3[C@@H]2[C@H]2OC(=O)[C@@H]3C[C@H]2O)cc1,inactive
22,CCCc1nc(C)cc(N2CCC(N(C)C)C2)n1 (configuration not stated),inactive
23,COc1ccc2c(c1)C(C)=CC(C)(C)N2C(=O)C(C)N1C(=O)c2ccccc2C1=O (configuration not stated),inconclusive: 18%
24,Cc1ccc(NC(=O)Cn2c(Br)nc3c2c(=O)n(C)c(=O)n3C)cc1,inactive

# Reprinted at random: three records from the list
row,Compound,inhibition
18,O=C1/C(=C/c2cccc(O)c2)Sc2ccccc21,inconclusive: 22%
17,CCCCNC(=O)Cc1c(C(=O)O)[nH]c2ccccc12,inactive
12,CN(Cc1cccs1)C(=O)C1(c2ccccc2F)CC1,inconclusive: 12%

# Following part:

row,Compound,inhibition
1,C=CCNC(=O)N[C@H]1CO[C@H]2[C@@H]1OC[C@H]2OC(=O)Nc1ccccc1,inactive
2,CCCCSc1nc2c(c(=O)[nH]1)C(c1ccc(Br)cc1)C1=C(CCCC1=O)N2 (configuration not stated),inconclusive: 11%
3,O=C1NCC2(CCCN(Cc3ccccc3-c3ccccc3)C2)O1 (configuration not stated),inactive
4,CCOc1ccccc1NS(=O)(=O)c1ccc2[nH]c(=O)c(=O)[nH]c2c1,inconclusive: 15%
5,O=C1CCCC2=C1C(c1cccc([N+](=O)[O-])c1)Nc1ccc3ncccc3c12 (configuration not stated),inconclusive: 22%
6,C=CCN1C=C(c2ccc3ccccc3n2)C(C#N)c2ccccc21 (configuration not stated),inconclusive: 16%
7,Cc1c(N=Cc2ccc(N3CCOCC3)cc2)c(=O)n(-c2ccccc2)n1C,inconclusive: 15%
8,Cn1cnc2cc(C(=O)N3CCNCC3C(=O)N3CCCC3)ccc2c1=O (configuration not stated),inactive
9,CCCCC(=O)NCc1nc2cccnc2n1CCOC,inactive
10,Cc1csc(NC(=O)C(Cc2ccccc2)NS(=O)(=O)c2cccs2)n1 (configuration not stated),inconclusive: 13%
11,O=C(/C=C/c1ccc(O)cc1)OC[C@H]1O[C@@H](OC(=O)/C=C/c2ccc(O)cc2)[C@H](O)[C@@H](O)[C@@H]1O,inconclusive: 13%
12,COc1ccccc1OC1CN(C(=O)c2cc3n(n2)CCCN(C)C3)C1,inconclusive: 19%
13,FC(F)C(F)(F)C1=Nc2ccccc2N=C(c2ccccc2)C1,inconclusive: 15%
14,COc1ccc(Nc2cc(C)nc3ncnn23)cc1,inactive
15,Cc1cc(CN(C)C(=O)c2sc3ncnc(NC[C@H]4C[C@@H]5C=C[C@H]4C5)c3c2C)on1,inactive
16,O=C(Nc1nc2c(s1)CCc1ccccc1-2)c1cc(Cl)ccc1[N+](=O)[O-],inconclusive: 24%
17,CCc1ccc(-c2nccn2CCc2ccco2)nc1,inconclusive: 17%
18,CCc1nc(NCCN(CC)CC)c(C#N)c2c1CCCC2,inactive
19,CC1CCCCN1CCNC(=O)c1cccn2c(=O)c3c4c(sc3nc12)CCCC4 (configuration not stated),inactive
20,O=C(CSc1nc2c(c(=O)n1-c1ccccc1)SCC2)Nc1ccccc1,inconclusive: 18%
21,CN(Cc1cc(-c2ccccc2)no1)C(=O)c1cn(CC2CCCO2)nn1 (configuration not stated),inconclusive: 12%
22,COC(=O)c1ccc(NC(=O)CN2CCCN(Cc3ccc(OC)cc3)S2(=O)=O)cc1,inconclusive: 10%
23,COc1ccc2cc3cc(C(=O)Nc4ccc(Cl)cn4)oc3nc2c1,inconclusive: 15%
